Percent effect of library compounds

Chains of the proteins cited; added tags and fusions are not shown.
UniProt P9WPC5, whole entry: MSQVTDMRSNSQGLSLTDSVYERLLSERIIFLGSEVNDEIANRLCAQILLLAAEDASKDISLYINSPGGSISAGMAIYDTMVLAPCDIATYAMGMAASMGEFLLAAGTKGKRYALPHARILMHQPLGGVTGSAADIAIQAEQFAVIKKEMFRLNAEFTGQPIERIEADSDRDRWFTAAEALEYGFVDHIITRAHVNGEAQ
UniProt P9WPC3, whole entry partner: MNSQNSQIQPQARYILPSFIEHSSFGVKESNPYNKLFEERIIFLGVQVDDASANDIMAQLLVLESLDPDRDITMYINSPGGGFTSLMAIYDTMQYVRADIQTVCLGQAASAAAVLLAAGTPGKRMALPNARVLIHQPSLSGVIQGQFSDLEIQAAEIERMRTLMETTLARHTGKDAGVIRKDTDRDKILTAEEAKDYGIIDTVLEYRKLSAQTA
UniProt I6X8D2, whole entry: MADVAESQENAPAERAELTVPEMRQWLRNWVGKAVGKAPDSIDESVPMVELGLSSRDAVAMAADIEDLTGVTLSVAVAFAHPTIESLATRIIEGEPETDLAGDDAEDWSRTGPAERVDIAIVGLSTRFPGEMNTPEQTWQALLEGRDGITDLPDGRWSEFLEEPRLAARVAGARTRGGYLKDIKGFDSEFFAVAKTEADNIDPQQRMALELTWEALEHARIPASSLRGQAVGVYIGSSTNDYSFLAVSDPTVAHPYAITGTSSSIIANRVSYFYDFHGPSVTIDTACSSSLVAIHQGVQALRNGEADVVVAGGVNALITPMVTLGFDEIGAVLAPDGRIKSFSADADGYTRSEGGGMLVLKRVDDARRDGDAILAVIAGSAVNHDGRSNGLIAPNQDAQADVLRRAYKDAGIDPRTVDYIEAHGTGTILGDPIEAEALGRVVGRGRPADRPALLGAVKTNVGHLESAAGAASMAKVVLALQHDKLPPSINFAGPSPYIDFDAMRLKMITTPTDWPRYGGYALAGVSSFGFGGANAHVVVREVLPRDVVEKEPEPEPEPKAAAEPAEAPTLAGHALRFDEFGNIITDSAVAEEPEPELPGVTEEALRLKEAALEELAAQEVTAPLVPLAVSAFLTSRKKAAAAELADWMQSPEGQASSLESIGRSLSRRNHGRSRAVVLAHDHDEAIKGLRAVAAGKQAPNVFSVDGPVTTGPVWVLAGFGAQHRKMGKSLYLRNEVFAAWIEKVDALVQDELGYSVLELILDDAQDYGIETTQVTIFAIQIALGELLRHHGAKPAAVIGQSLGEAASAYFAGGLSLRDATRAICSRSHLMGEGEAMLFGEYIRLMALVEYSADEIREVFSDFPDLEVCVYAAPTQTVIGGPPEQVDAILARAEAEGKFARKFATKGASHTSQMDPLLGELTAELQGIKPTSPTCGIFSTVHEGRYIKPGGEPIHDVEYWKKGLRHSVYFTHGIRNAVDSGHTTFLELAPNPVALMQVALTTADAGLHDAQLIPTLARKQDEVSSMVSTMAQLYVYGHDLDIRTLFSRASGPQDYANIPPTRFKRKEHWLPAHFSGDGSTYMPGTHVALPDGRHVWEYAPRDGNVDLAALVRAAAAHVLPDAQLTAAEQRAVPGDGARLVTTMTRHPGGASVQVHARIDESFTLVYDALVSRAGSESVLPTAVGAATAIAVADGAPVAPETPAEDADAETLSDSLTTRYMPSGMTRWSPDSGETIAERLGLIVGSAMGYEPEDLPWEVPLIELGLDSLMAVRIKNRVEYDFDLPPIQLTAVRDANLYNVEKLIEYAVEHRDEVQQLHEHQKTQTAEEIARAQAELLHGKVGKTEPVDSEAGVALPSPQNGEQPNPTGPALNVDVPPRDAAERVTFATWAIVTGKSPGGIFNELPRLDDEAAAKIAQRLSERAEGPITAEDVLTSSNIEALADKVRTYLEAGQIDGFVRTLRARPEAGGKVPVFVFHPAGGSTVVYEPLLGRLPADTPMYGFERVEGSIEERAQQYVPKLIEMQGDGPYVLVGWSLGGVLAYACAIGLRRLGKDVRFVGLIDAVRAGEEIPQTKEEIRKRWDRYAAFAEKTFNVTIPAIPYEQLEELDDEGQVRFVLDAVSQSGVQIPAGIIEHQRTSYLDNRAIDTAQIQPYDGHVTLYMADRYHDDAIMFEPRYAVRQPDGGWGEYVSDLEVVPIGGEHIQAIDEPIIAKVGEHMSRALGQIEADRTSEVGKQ
UniProt P9WFT3, whole entry: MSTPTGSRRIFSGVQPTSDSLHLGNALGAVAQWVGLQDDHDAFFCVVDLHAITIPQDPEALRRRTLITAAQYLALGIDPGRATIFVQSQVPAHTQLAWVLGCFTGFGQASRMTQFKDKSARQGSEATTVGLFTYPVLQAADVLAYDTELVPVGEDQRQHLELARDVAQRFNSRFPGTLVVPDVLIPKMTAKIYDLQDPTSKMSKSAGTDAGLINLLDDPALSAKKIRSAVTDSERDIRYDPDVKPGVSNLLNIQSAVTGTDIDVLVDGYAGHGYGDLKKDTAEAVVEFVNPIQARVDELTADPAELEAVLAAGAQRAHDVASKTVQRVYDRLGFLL

Measurements from “University of Dundee, Small-Polar-MMV Screening Library” (2021), ChEMBL document CHEMBL3988442.

Values are the deposited “Percent Effect”, in %.
The record does not define 0% and 100%; most values in the screen are far below 50% and negative numbers occur (in some assays of this library far below -100).
This is an unselected part of the compounds tested.
A dash means the value is not listed here; it may have been measured.

A: 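Protease assay of ClpP1P2, read by the AMC dye that it sets free. Target: ClpP1P2, Mycobacterium tuberculosis (UniProt P9WPC5 and UniProt P9WPC3). Compounds at 50 µM. Higher reads as stronger inhibition, judged from the few compounds that gave an IC50. Most other retested compounds had strongly negative values. Size under these conditions: about 69,000 compounds, about 10 of them at 50% or above in at least one test.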
B: 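Enzyme assay of the thioesterase domain of polyketide synthase 13; the read-out is not stated. Target: Polyketide synthase Pks13, Mycobacterium tuberculosis (UniProt I6X8D2). Compounds at 30 µM. The record gives no direction; the compounds picked for IC50 retests had high values, so higher reads as stronger inhibition. About 67,000 compounds were tested under these conditions; 0.46% (about 300) showed 50% or more at least once.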
C: 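Tryptophan-tRNA ligase, Mycobacterium tuberculosis (UniProt P9WFT3). Enzyme assay of tryptophanyl-tRNA synthetase; the read-out is not stated. Tested at 10 µM. Direction is not recorded; retested compounds ran higher, which suggests that high means inhibition. Size under these conditions: about 65,000 compounds, about 64 of them at 50% or above in at least one test.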

Compound | A | B | C
N#Cc1ccc(S(=O)(=O)NC(=O)c2csc(-c3ccco3)n2)cc1 | 6.758 | 3.946 | -3.229
Cn1nccc1NC(=O)c1cccc(CN2C[C@H]3CC[C@@H](C2)N3)c1 | -3.443 | -14.85 | 0.4666
Cc1sc2nc(CCN)nc(N(C)CCCC3CCCO3)c2c1C (stereo not given) | -0.05365 | -17.77 | -1.759
COCC1CN(Cc2ccoc2)Cc2cn(CC3CCCC3)nc21 (stereo not given) | -22 | 14.79 | -7.935
CN(C)C(=O)c1ccc(NCCNc2ccc3ccccc3n2)nc1 | 20.06 | -20.37 | 18.87
Cn1cc(NC(=O)Nc2cccc3cccnc23)ccc1=O | -11.33 | 17.99 | 7.478
Cc1cc(CN2CCCC2c2c(C)nn(C)c2Cl)on1 (stereo not given) | -0.5228 | - | -7.366
Cc1ccc(S(=O)(=O)NCCc2ccoc2)s1 | -14.15 | -11.21 | 1.607
CC1(Cc2ccc(Cl)cc2)Cc2cc(CCC(=O)O)ccc2O1 (stereo not given) | -4.537 | 24.09 | -4.818
Fc1cnc(N2CCC3(CC2)CN(Cc2cccs2)CCO3)nc1 | -2.688 | 4.458 | -
CN(Cc1ccco1)Cc1cnc2n1CCN(c1ncccn1)CC2 | -4.544 | -14.92 | -5.329
CCN(CC)S(=O)(=O)N(Cc1cccc(C)c1)Cc1ccccn1 | 26.03 | -11.89 | 13.49
O=C(Cc1ccccc1)NCCNS(=O)(=O)C1CCCCC1 | 9.169 | 2.997 | -0.3236
O=C(c1cnccn1)N1CCN2C[C@H](OCc3ccccc3F)C[C@H]2C1 | -1.307 | -21.62 | -0.241
CS(=O)(=O)NC[C@@H]1OC[C@H]2CN(C(=O)c3ccc[nH]3)CC[C@H]21 | 4.176 | -15.48 | 0.7345
O=C(c1ccc[nH]1)N1CCc2cc(S(=O)(=O)N3CCOCC3)ccc2C1 | 17.1 | 44.92 | 1.909
CS(=O)(=O)N1CCCC12CCCN(C(=O)c1ccnnc1)C2 (stereo not given) | -2.376 | -27.22 | -7.562
O=c1c(S(=O)(=O)N2CCCCC2)cccn1Cc1ccccc1Cl | 2.759 | -7.885 | 3.25
CCNC(=O)N(C)C(c1ccccc1)c1ccccn1 (stereo not given) | -16.06 | -6.389 | -1.595
CN1CCN(C)C(CNC(=O)N(C)Cc2ccc(Cl)c(F)c2)C1 (stereo not given) | -3.003 | -1.082 | 0.4045
CCc1ncc2c(n1)CN(C(C)C(=O)N1CCOCC1)CC2 (stereo not given) | 5.534 | 4.887 | 3.279
Cc1nccc(N(C)Cc2ncc(-c3ccccc3C(=O)O)s2)n1 | -15.26 | -10.71 | -10.55
Cc1nn(C)c(C)c1-c1cnc(C2CCCN(S(C)(=O)=O)C2)cn1 (stereo not given) | -9.139 | -8.614 | -
Cc1cn2c(CN(C)C(=O)c3cccnc3O)c(C)nc2s1 | -4.553 | -16.88 | -3.866
O=C(N1CCCC1)N1C[C@@H]2CCNC[C@@H]21 | -15.72 | -29.81 | -4.931
CN(CCCOc1ccccc1)Cc1nccn1C | -9.457 | -2.767 | -3.425
COC(=O)C(C)(C)NC(=O)c1cc2sc(N(C)C)nc2s1 | -22.14 | 52.33 | -2.033
Nc1nccc(N2CCC(Cc3ccccc3Cl)(C(=O)O)CC2)n1 | -9.744 | -2.66 | -8.437
NC(=O)CSc1ccccc1NC(=O)CC1C=CCC1 (stereo not given) | 25.12 | 5.323 | 1.237
COC(=O)c1cc(OCC2CCC2)cc(C(=O)N[C@@H]2CNCC[C@H]2O)c1 | -5.297 | -17.99 | -4.063
Cn1nc2c(cc1=O)CN(CCOc1ccccc1C#N)CC2 | -15.97 | 12.78 | 7.051
O=C(c1ccncc1)N1CCC(Oc2cccc(C(F)(F)F)c2)CC1 | -10.63 | -6.714 | 0.4105
Cc1ccc(F)c(C(=O)Nc2cccc(CCN3CCCC3)c2)c1 | -4.825 | -28.76 | -21.63
CN1C(=O)C2(CCN(C(=O)C3CCOCC3)CC2)c2ccccc21 | 2.276 | -17.1 | -7.703
CCN(C)S(=O)(=O)N1CCCC(CO)(CC=C(C)C)C1 (stereo not given) | -6.216 | -68.46 | 3.865
Cc1cccnc1N1CCN(C(=O)C(C)n2ccnc2C(C)C)CC1 (stereo not given) | 2.167 | -14.12 | 0.5298
Cc1ncsc1-c1ccn(CC(=O)Nc2cnn(C)n2)n1 | -13.5 | -7.987 | 3.457
CC(C)CNC(=O)c1cn(C)c(=O)c2ccccc12 | -18.08 | -7.565 | -4.289
CNC(=O)c1cnc(/C=C/c2cc(OC)cc(OC)c2)s1 | -1.17 | 54.25 | -3.752
CN1CC2(CNCCN(C(=O)Nc3ccccc3)C2)CC1=O (stereo not given) | -14.39 | -28.25 | -4.446
CC(=O)Nc1ccc(CC(=O)N2CC(S(=O)(=O)C3CCCCC3)C2)cc1 | -8.255 | -29.47 | -6.915
COc1ccc2c(c1)OCC(Cc1ccc(N)nc1C)C2 (stereo not given) | -5.219 | -9.989 | 4.25
O=C(C1CC1)N1CCC2(CC1)COCCN2Cc1ccc(F)cc1 | 14.08 | -11.82 | -0.2292
Cc1nc2ccc(C(=O)N3CCn4c(nnc4C4CC4)C3)cc2nc1C | -17.67 | -1.882 | -
Cc1cc(C2CCC2)nc(NCC(C)(C)CO)n1 | -4.734 | -52.01 | -0.6571
Cc1noc(C(C)N2CCN(CCc3ccncc3)CC2)n1 (stereo not given) | -1.963 | -3.671 | 15.24
CC(=O)N1CCC2(CC1)c1ncc(-c3ccccc3)n1CCN2C(C)=O | -1.968 | -30.96 | -4.575
NC(=O)Cn1ccc(NC(=O)C2(c3cccc(Cl)c3)CC2)n1 | -13.09 | -6.001 | -6.656
CC(=O)Nc1nc(C(=O)N2CCCC2c2noc(C3CC3)n2)cs1 (stereo not given) | -13.08 | -33.1 | -3.764

The first 6 entries again:

| Compound | A | B | C |
|---|---|---|---|
| `N#Cc1ccc(S(=O)(=O)NC(=O)c2csc(-c3ccco3)n2)cc1` | 6.758 | 3.946 | -3.229 |
| `Cn1nccc1NC(=O)c1cccc(CN2C[C@H]3CC[C@@H](C2)N3)c1` | -3.443 | -14.85 | 0.4666 |
| `Cc1sc2nc(CCN)nc(N(C)CCCC3CCCO3)c2c1C` (stereo not given) | -0.05365 | -17.77 | -1.759 |
| `COCC1CN(Cc2ccoc2)Cc2cn(CC3CCCC3)nc21` (stereo not given) | -22 | 14.79 | -7.935 |
| `CN(C)C(=O)c1ccc(NCCNc2ccc3ccccc3n2)nc1` | 20.06 | -20.37 | 18.87 |
| `Cn1cc(NC(=O)Nc2cccc3cccnc23)ccc1=O` | -11.33 | 17.99 | 7.478 |